PubChem BioAssay AID1259405 – NCATS – 2018
In all, the deposit lists about 50,000 reagents; below is an unselected part. In the full data, about 4,000 (8%) got an active call. 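Mouse siRNA library applied to hamster cells; one well for each siRNA.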 Unmarked entries are inactive. The numbers tell different reagents against one gene apart. No sequences are given here.

Assay: 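Mouse-designed siRNAs used to find CHO productivity engineering targets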 (primary screen)
Cells: Chinese hamster CHO-K1 ovary cells with stable secreted eGFP expression
Reagent: single siRNA against mouse genes, 0.8 pmol siRNA per well (2 µl of 400 nM stock)
Duration: 3 days
Read-out: 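Per-well intracellular GFP measured by laser scanning cytometry, plus viability from ATP luminescence, each relative to plate median of non-targeting control wells, in %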
Direction: GFP, % of control: higher = more GFP per well, higher productivity; viability (ATP), % of control: higher = more viable cells (more ATP)
Active means: 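a knock-down is called active if GFP reaches 120% or more of non-targeting control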

no.	gene symbol	siRNA no.	GFP, % of control	viability (ATP), % of control
1	Or2n1b	1	170 (active)	69.7
2	Or2n1b	2	47.9	63.8
3	Or2n1b	3	71.8	76.1
4	Lss	1	69.4	122
5	Lss	2	97.9	104
6	Lzts1	1	63.5	50.7
7	Lzts1	2	84.8	63.4
8	Lzts1	3	70.1	61
9	Ddah1	1	67.1	70.8
10	Ddah1	2	96.4	96.1
11	Ddah1	3	195 (active)	66.1
12	Ndufb7	1	74.9	100
13	Ndufb7	2	100	73.5
14	Fhod3	1	56.6	61.7
15	Fhod3	2	60.4	64.8
16	Fhod3	3	89.8	53.3
17	Appbp2	1	70	51.8
18	Appbp2	2	73.8	65.3
19	Appbp2	3	107	71.9
20	Oc90	1	88.9	102
21	Oc90	2	79.5	72
22	Oc90	3	57.1	63.3
23	Timm10b	1	49.4	63.1
24	Timm10b	2	94.2	75.2
25	Hbegf	1	67.6	59.7
26	Hbegf	2	113	100
27	Prima1	1	189 (active)	47.4
28	Prima1	2	29.2	28.1
29	Prima1	3	118	76.5
30	Prima1	4	57.4	109
31	Prima1	5	76	85.2
32	Prima1	6	110	87.7
33	Mitf	1	105	84.1
34	Mitf	2	74.3	81.5
35	Mitf	3	83.6	74.6
36	Ift80	1	120 (active)	67.8
37	Ift80	2	69.3	69.1
38	Ift80	3	73.4	64.4
39	Nfe2l1	1	52.9	56.3
40	Nfe2l1	2	51.6	62.9
41	Nfe2l1	3	85	92.9
42	Ch25h	1	86	77.6
43	Ch25h	2	91.6	43.1
44	Ch25h	3	54.2	58.1
45	Dgkd	1	114	96.3
46	Ttc12	1	62	54.1
47	Ttc12	2	74.6	71.1
48	Ttc12	3	58.9	71.4
49	Sp140l1	1	75.3	61.7
50	Sp140l1	2	71	84.8
51	Sp140l1	3	44.2	61
52	Traf3ip2	1	132 (active)	109
53	Traf3ip2	2	104	82
54	Traf3ip2	3	168 (active)	116
55	Bbs7	1	52	50.4
56	Bbs7	2	92.6	78.6
57	Bbs7	3	78.8	81.9
58	Meis2	1	69.4	67.3
59	Meis2	2	78.3	97.1
60	Meis2	3	45.8	75.1
61	Shc4	1	63.8	51.8
62	Shc4	2	58.1	50.3
63	Shc4	3	108	67.8
64	Cnmd	1	54.2	65.8
65	Cnmd	2	50.6	91.9
66	Cnmd	3	81.8	91.2
67	Fgl1	1	94.7	65.3
68	Fgl1	2	113	88.1
69	Fgl1	3	103	109
70	Wdr13	1	41.1	25.3
71	Wdr13	2	36.1	26.4
72	Wdr13	3	67.3	84
73	Irx2	1	78.6	84.9
74	Irx2	2	84.2	92.9
75	Irx2	3	100	111
76	Arln	1	70.2	86.7
77	Arln	2	18.6	13.9
78	Arln	3	56.9	67.6
79	Ascc2	1	75.4	55.9
80	Ascc2	2	83.4	78.4
81	Ascc2	3	126 (active)	77.7
82	Tmem260	1	75.2	51.6
83	Tmem260	2	58.7	71.2
84	Tmem260	3	99.3	95.2

In a second layout: entries from further up.
Arln #1
- GFP, % of control: 70.2
- viability (ATP), % of control: 86.7

Arln #2
- GFP, % of control: 18.6
- viability (ATP), % of control: 13.9

Arln #3
- GFP, % of control: 56.9
- viability (ATP), % of control: 67.6

Ascc2 #1
- GFP, % of control: 75.4
- viability (ATP), % of control: 55.9

Ascc2 #2
- GFP, % of control: 83.4
- viability (ATP), % of control: 78.4

Ascc2 #3
- GFP, % of control: 126 (active)
- viability (ATP), % of control: 77.7

Tmem260 #1
- GFP, % of control: 75.2
- viability (ATP), % of control: 51.6
